Consider 35 molecules from PubChem BioAssay AID1487 (National Center for Advancing Translational Sciences (NCATS), 2009).

The nature of the assay: qHTS Assay for Modulators of Lamin A Splicing. The settings on record: HeLa LMNA splicing GFP/RFP minigene ratio, 48 h. In short, it runs like this: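 S3 HeLa stable clones carrying a lamin A-EGFP splicing minigene plus DsRed2 were seeded at 600 cells/well in Opti-MEM with 2% FBS, pin-dosed and incubated 48 h at 37°C. Acumen cytometry (488 nm) gave the GFP/RFP total-intensity ratio.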
In general terms: In qHTS, concentration-response curves come from the screen itself.

The mark [1] stands for this setting: measured here: GFP splicing reporter channel.
Setting [2] is: measured here: RFP viability control channel.

As usually defined, the AC50 is the midpoint of the concentration-response curve, whichever way the signal moves.

The other results are listed elsewhere or left out. Further columns of the screen follow, without active or inactive calls. Most of these compounds were active or inconclusive in the main read-out, so they are no random draw. The note in brackets gives the kind of curve behind each potency; many fits are weak.

Regarding `COc1ccccc1-c1c(C(F)(F)F)oc2cc(OC(=O)c3ccccc3[N+](=O)[O-])ccc2c1=O`, the AC50 is, setting by setting: under setting [1], 2.51 µM [falling, single point]; under setting [2], 35.5 µM [falling, single point]. For `Cc1nc(NS(=O)(=O)c2ccccc2)sc1C(=O)NN`, under setting [2], the AC50 was 10 µM [falling, partial curve, poor fit]. In the case of `CN1CCN(c2nc(-c3ccc4c(c3)OCO4)nc3ccccc23)CC1`, the AC50 under setting [1] was 7.08 µM [falling, partial curve].

In the case of `O=C(Nc1cc(Cl)ccc1Cl)c1cc(S(=O)(=O)N2CCCc3ccccc32)ccc1F`, the AC50 under setting [2] is 14.1 µM [rising, single point]. For `O=C(NCc1ccccc1)c1cc(S(=O)(=O)N2CCC3(CC2)OCCO3)ccc1F`, the AC50 runs as follows: under setting [1], 15.8 µM [rising, single point]; under setting [2], 20 µM [rising, single point]. Consider `CCN=c1scc(-c2ccccc2)n1/N=C/c1ccccn1`, for which the AC50 under setting [2] is 7.08 µM [rising, partial curve]. Still for that read-out and setting: the result for `CCCN(C(=O)c1sc2nc3n(c(=O)c2c1C)CCCC3)c1ccccc1C` reads 20 µM [rising, partial curve, poor fit]. Turning to `O=C(CSc1nnc(-c2ccc(Br)cc2)o1)N1CCN(C(=O)c2ccco2)CC1`, the AC50 under setting [1] is 12.6 µM [rising, partial curve] and the AC50 under setting [2] was 20 µM [rising, single point]. For the molecule `CCCNC(=O)C1CCC(Cn2c(=O)c3sccc3n(CC(=O)Nc3ccccc3C)c2=O)CC1` (stereo unspecified), the AC50 under setting [2] was 0.501 µM [falling, full curve, poor fit]. As to `CCOc1ccc2[nH]c(=O)c(CN(Cc3ccco3)C(=O)c3cccc(F)c3)cc2c1`, the AC50 under setting [1] was 0.0158 µM [rising, full curve] and the AC50 under setting [2] was 14.1 µM [rising, partial curve, poor fit]. Turning to `CC(C)c1cc(C(N)=O)c(NC(=O)c2cccc(COc3ccc(Br)cc3)c2)s1`, the AC50 under setting [1] was 17.8 µM [rising, single point] and the AC50 under setting [2] is 35.5 µM [rising, single point]. Turning to `CCOC(=O)c1c(NC(=O)COc2ncnc3ccccc23)sc(C)c1CC`, the AC50 is 7.08 µM [rising, partial curve] under setting [1] and 17.8 µM [rising, partial curve] under setting [2]. `CCCn1c(NCc2ccco2)nc2c1c(=O)n(C)c(=O)n2C`: the AC50 under setting [2] is 31.6 µM [rising, single point]. The same measure, in the same setting: the result for `Cc1oc(-c2cccc(C(F)(F)F)c2)nc1CN1CCOCC1` reads 0.251 µM [falling, partial curve]. As to `CCc1ccc(Nc2cc(C(=O)NCCCN(C)c3ccccc3)c3ccccc3n2)cc1`, the AC50 reads like this: under setting [1], 35.5 µM [falling, single point]; under setting [2], 35.5 µM [falling, partial curve, poor fit]. Regarding `CCOc1ccc(CCNC(=O)c2sc3ncccc3c2-n2c(C)ccc2C)cc1`, the AC50 under setting [2] was 3.16 µM [rising, partial curve, poor fit]. Still for that read-out and setting: the result for `Cc1cc(=O)n(CC(=O)Nc2cccc([N+](=O)[O-])c2)c(-n2nc(C)cc2C)n1` reads 0.355 µM [falling, full curve]; that for `COc1ccc(-c2noc(C3CCCN(S(=O)(=O)c4ccc(C)c(Cl)c4)C3)n2)cc1OC` (stereo unspecified), 15.8 µM [rising, partial curve].

Consider `CCc1ccc(C(=O)CSc2n[nH]c(-c3ccncc3)n2)cc1`, for which the AC50 under setting [2] is 31.6 µM [rising, single point]. On the same count and under the same terms, the value for `CN(C)c1cccc(C(=O)N2CCC(c3ccncc3)CC2)c1` was 35.5 µM [rising, single point]. As to `COc1cc(CNc2ccc3[nH]c(=O)[nH]c3c2)cc(Br)c1OCc1ccc(F)cc1`, the AC50 by setting is: under setting [1], 20 µM [falling, partial curve, poor fit]; under setting [2], 35.5 µM [falling, single point]. Take `COc1ccccc1CNC(=O)c1cc2cc(C)ccc2n1C`: the AC50 under setting [2] is 10 µM [rising, partial curve, poor fit]. On the same count and under the same terms, the result for `Cc1ccc(S(=O)(=O)NCc2ccc(C(=O)N3CCN(Cc4ccccc4)CC3)cc2)cc1` reads 10 µM [rising, partial curve]; that for `Cc1ccc(Sc2c(C#N)c(-c3ccccc3)nn2C)cc1`, 31.6 µM [rising, single point]. For `O=S(=O)(Nc1cc(C(F)(F)F)ccc1N1CCOCC1)c1ccc2ccccc2c1`, under setting [1], the AC50 is 14.1 µM [rising, partial curve]. Regarding `CN(C)c1cccc2c1c(NC(=O)Nc1ccccc1)nn2C`, the AC50 under setting [2] is 7.08 µM [falling, partial curve, poor fit]. For `CN(C)c1ccc(/C=C(\C#N)c2ccccn2)cc1`, the AC50 under setting [2] is 35.5 µM [rising, single point]. The same measure, in the same setting: the result for `O=C(CCN1CCCC1Cc1ccccc1)c1ccc2c(c1)OCCO2` (stereo unspecified) reads 14.1 µM [falling, partial curve, poor fit]; that for `Cc1ccc(S(=O)(=O)N2CCOCC2)cc1C(=O)Nc1ccc(-c2cn3ccsc3n2)cc1`, 17.8 µM [rising, partial curve].

For the molecule `Cc1ccn2c(C(=O)CSc3ccc(Cl)cc3Cl)c(C)nc2c1`, the AC50 under setting [1] was 0.631 µM [rising, full curve, poor fit].

Consider `O=C(c1ccc2ccccc2c1)N1CCN(c2ccc(O)cc2)CC1`, for which, under setting [1], the AC50 is 6.31 µM [falling, partial curve]. Take `COc1ccc(/C=C/C(=O)c2ccc(NS(=O)(=O)c3ccc(C)cc3)cc2)cc1O`: the AC50 reads like this: under setting [1], 35.5 µM [falling, single point]; under setting [2], 35.5 µM [falling, single point]. For the molecule `O=C(c1ccc(Cn2c(=O)[nH]c3ccccc3c2=O)cc1)N1CCN(c2ccccc2)CC1`, the AC50 is, setting by setting: under setting [1], 12.6 µM [rising, partial curve, poor fit]; under setting [2], 20 µM [rising, partial curve]. Take `Cn1c(=O)n(CCc2ccccc2)c(=O)c2c1nc1n2CCCN1CCc1ccccc1`: the AC50 runs as follows: under setting [1], 35.5 µM [falling, single point]; under setting [2], 35.5 µM [falling, single point]. For `CCS(=O)(=O)N1Cc2ccccc2CC1C(=O)Nc1nc2c(C)cccc2s1` (stereo unspecified), the AC50 under setting [2] was 35.5 µM [rising, single point].
